The values below come from article PMC7065907.

Sequences of proteins named here, by UniProt entry; tags and fusion partners are left off. A change or cut given only in a name is not applied to a line headed by its entry.
UniProt Q9Y5T5: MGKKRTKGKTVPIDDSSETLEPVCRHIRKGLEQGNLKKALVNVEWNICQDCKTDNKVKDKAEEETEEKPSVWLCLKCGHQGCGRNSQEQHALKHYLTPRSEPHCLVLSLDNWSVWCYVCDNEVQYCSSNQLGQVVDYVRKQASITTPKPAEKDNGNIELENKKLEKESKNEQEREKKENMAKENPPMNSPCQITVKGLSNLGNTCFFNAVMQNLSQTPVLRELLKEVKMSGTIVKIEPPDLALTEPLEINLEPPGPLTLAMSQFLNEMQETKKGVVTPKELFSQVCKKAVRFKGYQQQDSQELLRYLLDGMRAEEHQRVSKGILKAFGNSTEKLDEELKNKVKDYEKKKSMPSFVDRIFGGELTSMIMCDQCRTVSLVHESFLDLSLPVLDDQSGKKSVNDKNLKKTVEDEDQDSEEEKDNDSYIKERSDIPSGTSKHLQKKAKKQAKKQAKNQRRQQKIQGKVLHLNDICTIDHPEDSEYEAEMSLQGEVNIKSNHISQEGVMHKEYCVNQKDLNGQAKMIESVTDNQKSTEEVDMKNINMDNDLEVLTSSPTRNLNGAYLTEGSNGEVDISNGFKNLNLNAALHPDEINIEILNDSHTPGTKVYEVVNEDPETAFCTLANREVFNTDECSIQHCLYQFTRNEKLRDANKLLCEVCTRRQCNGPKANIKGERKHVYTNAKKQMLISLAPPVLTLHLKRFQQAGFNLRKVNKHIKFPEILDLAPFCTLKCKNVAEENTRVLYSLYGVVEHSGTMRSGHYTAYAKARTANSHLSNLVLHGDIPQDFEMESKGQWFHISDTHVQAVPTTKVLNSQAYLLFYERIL

Results are given in words; binding and its absence hold for the method and conditions named. For some of these results: In cells and extracts the contact can be indirect. Some results given as binding are weak or reduced against the parent protein; the word gives no strength.

In one experiment the target is USP16(WT)-StHA (human) (UniProt Q9Y5T5). As to the kind of experiment: tandem affinity purification (TAP); StrepTactin beads, elution with 2.5 mM d-desthiobiotin, then HA-agarose 1 hr at 4°C, from lysates of HEK293 cells expressing the StHA-tagged bait; eluates analysed by silver staining and immunoblotting. (A western blot detects proteins with antibodies after separation by electrophoresis.)

For experiment [1], the target named is USP16(C205S)-StHA (human) (UniProt Q9Y5T5). Described as above.
For the next experiment, the target named is T1, RIOK1(kd)-StHA (human) (UniProt Q9BRS2).
T1 sequence: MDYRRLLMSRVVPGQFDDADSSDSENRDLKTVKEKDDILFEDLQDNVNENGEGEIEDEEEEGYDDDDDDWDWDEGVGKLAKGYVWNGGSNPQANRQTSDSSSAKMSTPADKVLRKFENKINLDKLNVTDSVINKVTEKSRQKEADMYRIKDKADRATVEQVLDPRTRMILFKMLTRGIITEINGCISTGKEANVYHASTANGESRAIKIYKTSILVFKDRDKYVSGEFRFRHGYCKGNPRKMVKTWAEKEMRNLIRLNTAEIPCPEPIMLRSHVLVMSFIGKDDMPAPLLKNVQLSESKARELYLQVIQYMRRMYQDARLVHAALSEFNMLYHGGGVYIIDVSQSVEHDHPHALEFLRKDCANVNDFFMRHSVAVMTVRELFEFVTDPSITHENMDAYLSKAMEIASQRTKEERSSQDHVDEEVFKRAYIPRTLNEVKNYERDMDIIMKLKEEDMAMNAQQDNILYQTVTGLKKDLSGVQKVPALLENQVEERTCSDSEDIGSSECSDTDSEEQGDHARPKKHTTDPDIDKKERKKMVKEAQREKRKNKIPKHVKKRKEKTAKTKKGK
As to the kind of experiment: pull-down; StrepTactin beads with lysates of tetracycline-induced HEK293 FlpIn T-REx cells expressing the tagged bait; 10 mM Tris pH 7.5, 100 mM KCl, 2 mM MgCl2, 0.5% NP-40, 1 mM DTT; 30 min at 4°C; eluates immunoblotted; in Figure 4E cells treated with control or USP16 siRNA for 72 hr.

The target in experiment [2] is T2, ENP1-StHA (human), Q13895.
T2 chain: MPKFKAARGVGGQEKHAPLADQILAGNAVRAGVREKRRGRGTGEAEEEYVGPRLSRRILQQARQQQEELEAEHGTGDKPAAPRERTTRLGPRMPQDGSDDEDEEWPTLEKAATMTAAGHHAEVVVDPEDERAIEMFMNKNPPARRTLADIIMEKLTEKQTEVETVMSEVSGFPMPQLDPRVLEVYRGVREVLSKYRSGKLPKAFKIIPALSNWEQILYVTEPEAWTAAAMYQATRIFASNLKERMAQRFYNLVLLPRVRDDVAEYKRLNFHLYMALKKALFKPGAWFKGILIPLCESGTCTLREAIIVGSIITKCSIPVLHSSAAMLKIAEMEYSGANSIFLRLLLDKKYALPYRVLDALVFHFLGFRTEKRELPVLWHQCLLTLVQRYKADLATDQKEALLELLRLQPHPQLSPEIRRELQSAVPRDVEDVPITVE
The experiment is described as above. The following applies: remark: other sources report otherwise.

B1: NOB1 (enzyme, UniProt Q9ULX3 1-412)
chain: MAPVEHVVADAGAFLRHAALQDIGKNIYTIREVVTEIRDKATRRRLAVLPYELRFKEPLPEYVRLVTEFSKKTGDYPSLSATDIQVLALTYQLEAEFVGVSHLKQEPQKVKVSSSIQHPETPLHISGFHLPYKPKPPQETEKGHSACEPENLEFSSFMFWRNPLPNIDHELQELLIDRGEDVPSEEEEEEENGFEDRKDDSDDDGGGWITPSNIKQIQQELEQCDVPEDVRVGCLTTDFAMQNVLLQMGLHVLAVNGMLIREARSYILRCHGCFKTTSDMSRVFCSHCGNKTLKKVSVTVSDDGTLHMHFSRNPKVLNPRGLRYSLPTPKGGKYAINPHLTEDQRFPQLRLSQKARQKTNVFAPDYIAGVSPFVENDISSRSATLQVRDSTLGAGRRRLNPNASRKKFVKKR
For B1, the binding entry (with USP16(WT)-StHA (human); in experiment [1]; in the experiment with RIOK1(kd)-StHA (human)) was “binds” throughout.

B2: NOB1, Q9ULX3 1-412 (enzyme)
chain: B1 chain
On to B2, for which the binding entry in experiment [2] was “binds”.
